Experiment [1] concerns the target T1, signal transducer and activator of transcription 4 (STAT4) (UniProt Q14765).
T1 sequence: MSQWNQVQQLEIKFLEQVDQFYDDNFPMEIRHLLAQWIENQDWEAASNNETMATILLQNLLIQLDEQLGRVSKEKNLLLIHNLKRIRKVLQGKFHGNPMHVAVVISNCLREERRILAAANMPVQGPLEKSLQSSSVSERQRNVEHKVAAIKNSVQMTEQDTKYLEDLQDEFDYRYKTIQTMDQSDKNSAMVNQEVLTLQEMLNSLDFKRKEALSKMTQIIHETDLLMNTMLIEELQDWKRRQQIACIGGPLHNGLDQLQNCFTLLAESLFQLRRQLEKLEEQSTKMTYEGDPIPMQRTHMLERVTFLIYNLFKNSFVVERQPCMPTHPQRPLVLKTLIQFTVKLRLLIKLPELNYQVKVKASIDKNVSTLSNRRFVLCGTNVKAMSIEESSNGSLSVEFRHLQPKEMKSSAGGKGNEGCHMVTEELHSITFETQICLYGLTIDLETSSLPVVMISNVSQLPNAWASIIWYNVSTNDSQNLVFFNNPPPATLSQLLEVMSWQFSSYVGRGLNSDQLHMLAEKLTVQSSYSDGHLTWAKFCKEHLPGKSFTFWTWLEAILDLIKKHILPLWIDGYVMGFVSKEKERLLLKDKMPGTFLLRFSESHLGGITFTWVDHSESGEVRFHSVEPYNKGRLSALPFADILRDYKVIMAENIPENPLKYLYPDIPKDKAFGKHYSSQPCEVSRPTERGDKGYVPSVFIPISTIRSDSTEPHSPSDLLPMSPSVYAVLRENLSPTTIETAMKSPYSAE
Kind of experiment: co-IP; Co-IP assay using renin and STAT4 plasmids (Figure S5C); cells not given.

Sequences of proteins named here, by UniProt entry; tags and fusion partners are left off. A change or cut given only in a name is not applied to a line headed by its entry.
UniProt O60674: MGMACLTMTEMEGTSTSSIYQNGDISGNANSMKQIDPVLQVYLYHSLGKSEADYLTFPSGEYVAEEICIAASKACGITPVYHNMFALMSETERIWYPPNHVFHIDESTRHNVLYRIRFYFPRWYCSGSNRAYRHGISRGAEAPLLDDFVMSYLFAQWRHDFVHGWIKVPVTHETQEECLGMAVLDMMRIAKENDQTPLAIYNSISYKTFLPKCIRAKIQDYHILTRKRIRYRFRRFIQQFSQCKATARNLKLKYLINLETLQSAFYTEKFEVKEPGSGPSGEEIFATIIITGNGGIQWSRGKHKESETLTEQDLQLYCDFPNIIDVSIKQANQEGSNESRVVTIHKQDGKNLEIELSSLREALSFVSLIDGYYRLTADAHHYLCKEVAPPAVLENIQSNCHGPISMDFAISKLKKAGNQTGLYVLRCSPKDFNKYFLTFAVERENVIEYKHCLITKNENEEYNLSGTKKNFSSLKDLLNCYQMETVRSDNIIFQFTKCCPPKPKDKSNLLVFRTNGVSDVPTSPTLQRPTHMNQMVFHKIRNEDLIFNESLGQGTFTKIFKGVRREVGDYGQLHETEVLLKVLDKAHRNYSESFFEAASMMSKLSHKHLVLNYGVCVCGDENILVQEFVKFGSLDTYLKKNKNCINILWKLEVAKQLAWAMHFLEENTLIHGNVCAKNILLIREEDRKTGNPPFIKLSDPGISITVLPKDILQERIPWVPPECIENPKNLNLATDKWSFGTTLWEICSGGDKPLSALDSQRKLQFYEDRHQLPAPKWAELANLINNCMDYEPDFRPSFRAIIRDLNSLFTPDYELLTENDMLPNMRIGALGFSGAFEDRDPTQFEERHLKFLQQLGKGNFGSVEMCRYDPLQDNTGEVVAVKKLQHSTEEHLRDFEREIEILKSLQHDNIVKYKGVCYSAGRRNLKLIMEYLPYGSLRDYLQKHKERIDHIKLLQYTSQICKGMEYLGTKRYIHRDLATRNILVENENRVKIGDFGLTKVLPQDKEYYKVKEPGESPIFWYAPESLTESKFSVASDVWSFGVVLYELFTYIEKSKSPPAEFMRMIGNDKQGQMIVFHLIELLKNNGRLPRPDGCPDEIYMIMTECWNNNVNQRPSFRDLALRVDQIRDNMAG
UniProt P00797: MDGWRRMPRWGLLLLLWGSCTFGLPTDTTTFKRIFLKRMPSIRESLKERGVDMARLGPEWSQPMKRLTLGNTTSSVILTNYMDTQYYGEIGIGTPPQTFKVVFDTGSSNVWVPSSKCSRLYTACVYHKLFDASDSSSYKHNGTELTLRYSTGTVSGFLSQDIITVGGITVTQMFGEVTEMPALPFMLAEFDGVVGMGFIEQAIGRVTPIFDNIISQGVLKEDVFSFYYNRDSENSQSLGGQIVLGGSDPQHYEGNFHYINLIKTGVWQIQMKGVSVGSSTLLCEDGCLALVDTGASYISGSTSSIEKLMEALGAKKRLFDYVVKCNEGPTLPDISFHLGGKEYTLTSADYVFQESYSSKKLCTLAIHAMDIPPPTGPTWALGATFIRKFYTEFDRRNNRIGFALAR

A further experiment concerns the target Janus kinase 2 (JAK2) (UniProt O60674). Nature of the experiment: co-IP; Co-IP and Western blot of cell lysates from HOKs transfected with the indicated plasmids. In general terms: A western blot detects proteins with antibodies after separation by electrophoresis.

No constants are given. Whether binding was seen depends on the method and setting. Binding seen in cells or lysates may run through a third protein. For some assays here: A result given as binding can be weak or reduced; the word gives no strength.

renin (from UniProt P00797) (enzyme): the binding result in experiment [1] is given as “no binding”; with Janus kinase 2 (JAK2) it was “binds”.
